Sequences of proteins named here, by UniProt entry; tags and fusion partners are left off.
UniProt P28223, whole entry: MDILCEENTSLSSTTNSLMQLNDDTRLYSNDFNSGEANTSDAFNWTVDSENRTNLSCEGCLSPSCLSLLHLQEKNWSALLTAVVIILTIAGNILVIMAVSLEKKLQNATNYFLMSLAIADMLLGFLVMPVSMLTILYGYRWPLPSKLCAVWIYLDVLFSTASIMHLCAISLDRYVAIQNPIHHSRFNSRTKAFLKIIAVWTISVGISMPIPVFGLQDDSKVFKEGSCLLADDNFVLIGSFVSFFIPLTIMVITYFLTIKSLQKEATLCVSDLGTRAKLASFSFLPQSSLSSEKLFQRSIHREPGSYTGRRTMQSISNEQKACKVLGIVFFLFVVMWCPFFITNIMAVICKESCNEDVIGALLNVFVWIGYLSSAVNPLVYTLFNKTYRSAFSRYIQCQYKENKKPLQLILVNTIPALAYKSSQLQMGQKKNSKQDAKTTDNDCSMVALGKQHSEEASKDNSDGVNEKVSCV
UniProt P14842, whole entry: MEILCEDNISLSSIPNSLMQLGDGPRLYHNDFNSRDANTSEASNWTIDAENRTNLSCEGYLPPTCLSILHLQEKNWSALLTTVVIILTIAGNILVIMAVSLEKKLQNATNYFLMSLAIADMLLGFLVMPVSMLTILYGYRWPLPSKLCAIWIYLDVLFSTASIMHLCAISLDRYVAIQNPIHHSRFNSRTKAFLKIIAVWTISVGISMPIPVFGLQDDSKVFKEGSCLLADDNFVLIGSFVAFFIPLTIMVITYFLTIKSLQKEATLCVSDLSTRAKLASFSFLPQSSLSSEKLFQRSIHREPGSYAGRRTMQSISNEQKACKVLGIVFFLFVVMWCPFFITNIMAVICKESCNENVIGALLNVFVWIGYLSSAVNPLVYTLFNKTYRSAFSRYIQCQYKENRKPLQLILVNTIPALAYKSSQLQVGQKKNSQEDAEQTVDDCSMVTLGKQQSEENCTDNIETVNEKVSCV

In BindingDB's records for doi:10.1038/sj.mp.4000336 (University of Toronto, 1998):

Columns and labels:
[1] = molecular target: 5-hydroxytryptamine receptor 2A (Homo sapiens, UniProt P28223)
[2] = molecular target: 5-hydroxytryptamine receptor 2A (Rattus norvegicus, UniProt P14842)

| Ki [1] [nM] | Ki [2] [nM] | Structure (SMILES) |
| --- | --- | --- |
| 0.12 | – | COc1cc(C(C)=O)ccc1OCCCN1CCC(c2noc3cc(F)ccc23)CC1 |
| – | 110 | OCCOCCN1CCN(C2=Nc3ccccc3Sc3ccccc32)CC1 [2-[2-(4-dibenzo[b,f][1,4]thiazepin-11-ylpiperazin-1-yl)ethoxy]ethanol] |
